From patent publication US9303069B2, “Peptides for treating cancer” (University of Mississippi Medical Center, priority 2014, dated 2016)
For part of these data: For at least one compound, name, drawing or mass did not settle the structure. Some results were stated once for a whole list of compounds, not compound by compound. Ends that are not written are not given here.

Key:
[1] = system: AKT, p-AKT, p-FOXO and FOXO3a; test: Signalling proteins in MDA-MB-231 and MDA-MB-468 cells (Western); type: cell-based, human
Source text: This was completely in line with decreased MDM2 and Skp2 (the ubiquitin ligases responsible for p-FOXO degradation) expression in BRCA1-IRIS silenced and BRCA1-IRIS and AKT inactivated cells (FIG. 87).

HOSE and HOSE/IRIS cells = test: Survival of HOSE versus HOSE/IRIS cells; type: cell-based, human; conditions: 10 μM inhibitor, 24 hours
Procedure: To test that, HOSE or HOSE/IRIS cells were incubated for 24 hours with 10 μM of ErbB2 (CP-724714), EGFR (Erlotinib), TrkB (K252a), JNK (SP600125), p38 (SB203580), ERK (PD98059) and PI3′K/AKT (LY294002) inhibitors. […] Taken together, BRCA1-IRIS overexpression activates AKT and ERK, thereby inactivating FOXO3a and promoting Cyclin D1, survivin, Bcl-2 and NF-κB expression and suppressing p27 expression (FIG. 15).
HOSE cells overexpressing IRIS show a higher degree of resistance to cisplatin than HOSE cells (compare blue to black line in FIG. 30).
Cell viability measurement. Cell viability under different experimental conditions was determined using the MTS assay […]. Briefly, SKOV3, OVACAR3, HOSE and HOSE/IRIS cells (2.5×10^4 cells per well) were seeded in 96 well plates and incubated overnight at 37° C. in 10% humidified CO2 atmosphere in varying concentrations of IRIS peptide, or inhibitors of ErbB2 (CP-724714), EGFR (Erlotinib), TrkB (K252a), JNK (SP600125), p38 (SB203580), ERK (PD98059) and PI3′K/AKT (LY294002) inhibitors for 24 hours at 37° C. […] Cell viability (%) was expressed as a ratio to control cells×100. Growth inhibition was also determined by manually counting cells in five different microscopic fields. Change in cell numbers (fold) was expressed as a ratio to control cells×100. […]

HME and HME/IRIS cells = test: Survival of HME versus HME/IRIS cells with pathway inhibitors; type: cell-based, human; conditions: 10 μM inhibitor, 24 hours
Procedure: Similar numbers of HME or HME/IRIS were grown in the presence of 10 μM of ERK (PD98059), JNK (SP600125), p38 (SB203580), EGFR (Erlotinib), ErbB2 (CP-724714) or PI3′K/AKT (LY294002) inhibitors for 24 hours. In keeping with published data (Nakuci et al., 2006; Hao and ElShamy, 2007; Chock et al., 2010a), BRCA1-IRIS overexpression promoted cells proliferation (FIG. 73). Thus, data are represented as percentage of treatment compared to no treatment in each cell line separately. […] Thus, as expected, cells overexpressing BRCA1-IRIS exerts some of their functions through EGFR/ErbB2 that feeds into PI3′K/AKT/mTOR and MAPK signaling pathways (FIG. 74).
Cell viability measurement. Cell viability under different experimental conditions was determined using the MTS assay. Briefly, cells (2.5×10^4 cells per well) were seeded in 96-well plates and incubated overnight at 37° C. in 10% humidified CO2 atmosphere. […] Cell viability was determined using cell Titer 96® Aqueous (Promega, Madison, Wis., USA) following manufacturer's instructions. Cell viability (%) was expressed as a ratio of treated cells to control cells×100. Growth inhibition was also determined by manually counting cells in five different microscopic fields. Change in cell numbers (fold) was expressed as a ratio of the means of these recording of treated cells compared to control cells×100. […]

AKT, ERK, MDM2 and Skp2 = test: Signalling proteins in SKOV3 and OVCAR3 cells (Western); type: cell-based, human
Source text: Finally, to further dissect the IRIS-induced cisplatin resistance pathway, PI3′K/AKT (using […]) and ERK (using PD98059) were inactivated and compared to IRIS peptide in two aggressive ovarian cancer cell lines. […] Phosphorylation of cytoplasmic or nuclear FOXO3a by p-AKT and/or p-ERK promotes MDM2 binding and priming ubiquitylation, which is then followed by Skp2 branching ubiquitylation and FOXO3a degradation (Huang and Tindall, 2011). FOXO was less phosphorylated in LY, PD as well as IRIS-silenced/inactivated SKOV3 or OVCAR3 cells (FIG. 34). […] Consistently, in BRCA1-IRIS silenced/inactivated cells accumulation of unphosphorylated/stabilized FOXO3a was detected. In contrast, FOXO3a was still decreased to different degrees in LY or PD treated cells (FIG. 34).

BRCA1-IRIS = BRCA1-IRIS expression in breast cells (Western); type: cell-based, human; conditions: MDA-MB-231 and MDA-MB-468; 5 μM IRIS peptide, 10 μM LY294002 or 10 μM PD98059 24 hours; siRNA 72 hours
Procedure: HME and HME/IRIS cells were treated with 10, 20 and 50 μM of paclitaxel for 24 hours. Compared to HME/IRIS cells, untreated HME cells express very low level of BRCA1-IRIS (FIG. 68, left). […] Both EGF and NRG1, which were secreted at higher levels from untreated HME/IRIS cells, remained high after paclitaxel (until ˜50 μM, FIG. 68, left), whereas in HME cells, both were induced by low paclitaxel treatment (FIG. 68, left). Consistently, in HME/IRIS cells EGFR was phosphorylated on Y1173 (activated by EGF when EGFR is in complex with ErbB2) and ErbB2 on Y1248 (activated by NRG1 when ErbB2 is in complex with ErbB3) remained the same after paclitaxel treatment (until ˜50 μM, FIG. 68, left). Phosphorylated EGFR-Y1173 and ErbB2-Y1248 was only observed in paclitaxel treated HME cells, especially at low concentration (FIG. 68, left).
Survived/paclitaxel-resistant cells were then propagated in the absence of paclitaxel and analyzed. Again, the intrinsically high level of BRCA1-IRIS was not affected by paclitaxel in HME/IRIS cells (FIG. 69, left). […] The expressions of EGFR, ErbB2 and ErbB3 were high in HME/IRIS and HME cells (FIG. 69, left). Despite an intrinsic increase in HME/IRIS and paclitaxel-acquired increase in HME cells in AKT activation, FOXO inactivation/degradation and thus activation increase in CyclinD1, survivin, Bcl-2, Bcl-xL and NF-κB was observed (FIG. 69, right). […]

MDA-MB-231 cells = conditions: MDA-MB-231 expressing scrambled shRNA; 0, 10 or 20 μM inhibitor, 24 hours
[2] = system: MDA-MB-231 and MDA-MB-468 cells; test: Mammo-sphere assay; type: cell-based, human; conditions: ten days

Question: Which “total and activated AKT (p-AKT) levels” value ([1]; 5 μM IRIS peptide or 10 μM LY294002, 24 hours) does the source give for `O=c1cc(N2CCOCC2)oc2c(-c3ccccc3)cccc12` [LY294002] here?
Answer: reduced only p-AKT levels in both cell lines

Question: And the “p-FOXO and FOXO3a levels” value ([1]; 5 μM IRIS peptide, 10 μM LY294002 or 10 μM PD98059, 24 hours)?
Answer: decreased p-FOXO level and increased the levels of FOXO3a in both cell lines

Question: And the “effect on survival of HOSE versus HOSE/IRIS cells” value (HOSE and HOSE/IRIS cells)?
Answer: significantly decreased survival of HOSE/IRIS cells only

Question: And the “effect on survival of HME versus HME/IRIS cells” value (HME and HME/IRIS cells)?
Answer: specifically reduced survival in HME/IRIS and not HME cells

Question: And the “AKT and ERK expression and activation” value (AKT, ERK, MDM2 and Skp2)?
Answer: significantly inactivated their cognate protein

Question: What about the “MDM2 and Skp2 expression” value (AKT, ERK, MDM2 and Skp2) of the same molecule?
Answer: reduced MDM2 and not Skp2 expression

Question: And the BRCA1-IRIS expression (BRCA1-IRIS)?
Answer: significantly reduced BRCA1-IRIS expression in MDA-MB-231 and to a lesser degree in MDA-MB-468

Question: What about the effect on survival (MDA-MB-231 cells) of the same molecule?
Answer: decreased the survival

Question: What does the source list for `Oc1c2ccccc2c2c3c(cccc13)N=N2` [SP600125]?
Answer: effect on survival of HOSE versus HOSE/IRIS cells (HOSE and HOSE/IRIS cells): no effect on either cell line; effect on survival of HME versus HME/IRIS cells (HME and HME/IRIS cells): reduced survival of both cell lines

Question: Which “reduction in the diameter of mammospheres” value [2] does the source give for “RRIRPRPPRLPRPRPRPLPFPRPGIGTRFLCLPQSIYRSELNVYAFGEHILQISKYS [IRIS peptide]” here?
Answer: 3-6 fold

Question: What about the “reduction in the number of mammospheres” value [2] of the same molecule?
Answer: 3-4 fold
